Values quoted from earlier work as cited in US20030224416A1, “Schizophrenia related gene” (priority 2002, published 2003).
At least one structure is not confirmed: it was looked up by name or label, or the drawing left a doubt.

Test system: schizophrenia
Conditions: patients; cited from earlier work

For `CN1CCN(C2=Nc3cc(Cl)ccc3Nc3ccccc32)CC1` [clozapine], the “action against the negative symptoms and cognitive dysfunction of schizophrenia” value is given as “minimally effective” and the “attenuating the positive symptoms of schizophrenia” value is given as “effective”.
